This note sets out measurements from PMC8390506.

These are yes or no findings as the source states them, for the method shown.

This experiment addresses T1, Targeting Protein for XKlp2 (TPX2), full length, wild type (Xenopus laevis), Q6NUF4.
T1 chain: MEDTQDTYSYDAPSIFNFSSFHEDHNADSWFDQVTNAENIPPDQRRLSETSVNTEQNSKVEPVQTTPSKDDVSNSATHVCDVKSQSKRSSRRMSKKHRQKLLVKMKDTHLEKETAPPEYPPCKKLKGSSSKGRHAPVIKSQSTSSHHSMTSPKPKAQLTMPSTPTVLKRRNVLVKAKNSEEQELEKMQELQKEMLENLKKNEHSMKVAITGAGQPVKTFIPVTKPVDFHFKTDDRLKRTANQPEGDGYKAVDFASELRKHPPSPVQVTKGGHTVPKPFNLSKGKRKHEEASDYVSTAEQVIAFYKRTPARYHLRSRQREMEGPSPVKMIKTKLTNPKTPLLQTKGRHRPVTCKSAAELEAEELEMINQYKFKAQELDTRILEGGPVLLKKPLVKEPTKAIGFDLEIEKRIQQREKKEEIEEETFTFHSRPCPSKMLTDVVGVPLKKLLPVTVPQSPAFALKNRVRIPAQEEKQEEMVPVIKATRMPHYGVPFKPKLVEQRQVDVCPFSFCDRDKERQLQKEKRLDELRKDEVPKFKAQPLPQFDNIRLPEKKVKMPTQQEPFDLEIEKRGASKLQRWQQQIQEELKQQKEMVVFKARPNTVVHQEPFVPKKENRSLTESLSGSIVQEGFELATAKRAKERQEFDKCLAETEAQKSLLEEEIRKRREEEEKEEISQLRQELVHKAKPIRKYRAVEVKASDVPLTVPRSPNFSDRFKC
Nature of the experiment: SEC-MALS; Superdex-200-increase 3.2/300 in line with a Wyatt light scattering machine; GFP-TPX2 alone, importin-α/β alone and TPX2 with importin-α/β (TPX2 printed as 5 M, importin-α/β 15 μM); both purified. Particulars: remark: other sources report otherwise. On the technique in general: SEC sorts molecules by how far they enter the pores of the column.

B1: Targeting Protein for XKlp2 (TPX2), full length, wild type, Q6NUF4 1-716 (protein)
chain: T1 chain
On to B1, for which the binding entry is recorded as “no binding”.
